Results on one compound are retold here after publication PMC10252837, “A Novel Time-Resolved Fluorescence Resonance Energy Transfer Assay for the Discovery of Small-Molecule Inhibitors of HIV-1 Tat-Regulated Transcription” (International Journal of Molecular Sciences, 2023).

One test relates to HIV-1NL4-3. The test can be described thus: HIV-1 infectivity in TZM-bl cells (LTR-driven F-Luc). The class given is cell-based. As to the method:
(§1) (A) (Upper panel) Doxycycline (Dox)-inducible Tat-expressing bl-DTR cells cultured in 96-well plates treated with two-fold serial dilutions of each compound in the presence of Dox (50 ng/mL). At 24 h after treatment, the activity of firefly luciferase (F-Luc), indicating Tat activity, was determined as described in the Materials and Methods section. (Bottom panel) TZM-bl cells were treated with two-fold serial dilutions of the indicated compound and then infected with the HIV-1NL4-3 strain at a multiplicity of infection (MOI) of 1. At 24 h after infection, the viral infectivity and cell viability were determined as described in the Materials and Methods section. […] At 24 h after treatment, LTR promoter activity was determined via a Bright-Glo Luciferase Assay Kit. […] The mobility of biotinylated TAR RNA was detected by chemiluminescence.
To determine the inhibitory effect of hit compounds on HIV-1 infection, we used TZM-bl cells (also referred to as JC53BL-13), which express HIV-1 receptors and contain the LTR-driven F-Luc gene controlled by HIV-1 infection, as described previously but with some minor modifications. […] At 24 h after infection, the inhibitory effect of the hit compounds on infectivity was determined using the Bright-Glo Luciferase Assay Kit (Promega). The dose–response data are expressed as a relative percentage compared to the DMSO control (vehicle). […]

Test [1] concerns Tat activity (Tat-induced viral transcription). The test can be described thus: microbe, parasite or virus in culture. To be noted: Human immunodeficiency virus 1, 24 h, read-out: IC50 of Tat Activity. The test is classed as cell-based, HIV-1. How it is done: as §1
The inhibitory effect of hit compounds on Tat-mediated transcription was determined using doxycycline (Dox)-inducible Tat-expressing TZM-bl cells that express the LTR-driven firefly luciferase (F-Luc) gene under the control of Tat upon Dox treatment, as described previously but with minor modifications. […] After 24 h, the inhibitory effect of the hit compounds on Tat activity was determined by measuring F-Luc activity using a Bright-Glo Luciferase Assay Kit (Promega, Madison, WI, USA). […]

SMILES strings stand for the structures.

Usually IC50 stands for the point on the concentration scale where inhibition reaches its midpoint. Regarding `CC[C@H](CO)Nc1nc(NCc2ccccc2)c2ncn(C(C)C)c2n1` [Seliciclib, reference compound], the IC50 in the test on HIV-1NL4-3 (Human immunodeficiency virus 1, TZM-bl, 24 h, read-out: IC50 of Infectivity) was 2400 ± 327 nM; in test [1], 2060 ± 409 nM. Besides, the “SI (selectivity index)” value in the test with HIV-1NL4-3 (TZM-bl cells) is above 5.217.
